Measured data: PubChem BioAssay AID504791 (Drosophila RNAi Screening Center, 2011)
The deposit covers about 23,000 reagents; this is an unselected part of those with a known target gene and a result. Over the whole deposit, 199 (0.86%) got an active call. 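Plate-scaled ratios behind the calls are not deposited; printed light signals are raw; many rows marked increased or decreased are still called inactive.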 Names joined by + are all predicted targets of the reagent. Not stated in the record: the direction of the score.

- Assay: 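Factors in Argonaute-based small RNA production and activity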 (primary screen)
- Cells: Drosophila S2-derived reporter cells
- Reagents: long dsRNA against Drosophila genes, about 150-250 ng dsRNA per well (siRNA assay); about 80-120 ng (miRNA assay)
- Time to read-out: about 5 days (siRNA assay); about 4 days (miRNA assay)
- Challenge: copper sulfate induction of reporters: 25 µM (siRNA assay); 200 mM stated (miRNA assay), 1-2 days before reading
- Detection: 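Dual luciferase assay: Renilla to firefly signal ratio in each well, scaled to the mean ratio of its plate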
- Active means: 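First-pass picks had plate-scaled ratios over 1.5 for the siRNA assay, over 1.6 for the miRNA assay, or under 0.6; two distinct dsRNAs had to score alike on retest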

no.	gene	amplicon	stable siRNA reporter change	miRNA reporter change	stable assay Renilla, run 1 (luminescence)	stable assay firefly, run 1 (luminescence)	Outcome
1	CG14780 (GeneID 31102)	DRSC18566			5283	3.17e5	inactive
2	CG13310 (GeneID 39007)	DRSC09981			8006	5.25e5	inactive
3	cmb (GeneID 39513)	DRSC09790			6659	3.44e5	inactive
4	mIF2 (GeneID 43382)	DRSC14510			6598	3.77e5	inactive
5	vito (GeneID 326214)	DRSC21781			10006	5.14e5	inactive
6	mus201 + Chrac-14	DRSC03568			7119	4.01e5	inactive
7	mus201 + Chrac-14	DRSC03575			7758	4.37e5	inactive
8	CG33286 (GeneID 2768984)	DRSC11691			7490	3.82e5	inactive
9	CG11807 (GeneID 36683)	DRSC06087			11443	5.27e5	inactive
10	Arf6 (GeneID 36699)	DRSC05921			7199	3.53e5	inactive
11	SkpA (GeneID 31016)	DRSC18833			6059	4.70e5	inactive
12	Mau2 (GeneID 41830)	DRSC15550			7715	3.73e5	inactive
13	CG5056 (GeneID 34406)	DRSC02808			7635	2.99e5	inactive
14	CG34256 (GeneID 5740297)	DRSC09582			6360	5.01e5	inactive
15	mey (GeneID 43715)	DRSC14468			9859	5.32e5	inactive
16	eIF2Balpha (GeneID 43549)	DRSC16332			8035	5.00e5	inactive
17	Pisd (GeneID 42849)	DRSC15935			8086	3.38e5	inactive
18	CG16974 (GeneID 34713)	DRSC02551			1.11e5	1.18e6	inactive
19	msopa (GeneID 45962)	DRSC11895			5636	2.29e5	inactive
20	msopa (GeneID 45962)	DRSC23240			4475	3.27e5	inactive
21	CG15615 (GeneID 36882)	DRSC06568			6810	5.56e5	inactive
22	tinc (GeneID 42148)	DRSC14798			6320	4.46e5	inactive
23	tinc (GeneID 42148)	DRSC14799			7953	4.62e5	inactive
24	tinc (GeneID 42148)	DRSC16308			8079	3.37e5	inactive
25	tinc (GeneID 42148)	DRSC16309			7771	5.12e5	inactive
26	ths (GeneID 36258)	DRSC06153			4208	1.67e5	inactive
27	ths (GeneID 36258)	DRSC23123			7834	4.16e5	inactive
28	gammaCOP (GeneID 43717)	DRSC16955		reporter ratio raised past the hit cutoff	4276	2.12e5	inactive
29	CG34163 (GeneID 5740407)	DRSC01219			6542	6.18e5	inactive
30	CG34148 + P5CDh2	DRSC13519			4472	4.58e5	inactive
31	dome (GeneID 32976)	DRSC19583			6727	4.08e5	inactive
32	CG11170 (GeneID 37533)	DRSC04090			11277	4.86e5	inactive
33	CG13138 (GeneID 34381)	DRSC02235			8554	3.87e5	inactive
34	AhcyL2 (GeneID 42043)	DRSC14107			6739	3.51e5	inactive
35	ppk20 (GeneID 43486)	DRSC16260			6571	3.81e5	inactive
36	Muc14A (GeneID 318097)	DRSC23264			6363	4.64e5	inactive
37	Ir93a (GeneID 42471)	DRSC15212			13988	5.95e5	inactive
38	Ir93a (GeneID 42471)	DRSC15213			6588	2.93e5	inactive
39	gro (GeneID 43162)	DRSC16962			9430	5.43e5	inactive
40	CG7215 + Prx5	DRSC16214			8790	5.34e5	inactive
41	CG7215 + Prx5	DRSC16215			11391	4.93e5	inactive
42	msl-2 (GeneID 33565)	DRSC00829			17130	87876	inactive
43	Nup35 (GeneID 32851)	DRSC19999			9407	3.50e5	inactive
44	CG14568 (GeneID 40418)	DRSC11729			5779	3.59e5	inactive
45	Aatf (GeneID 33943)	DRSC02131			6718	4.44e5	inactive
46	Saysd1 (GeneID 43029)	DRSC14664			6211	2.98e5	inactive
47	CG3473 (GeneID 34849)	DRSC01915			7600	4.19e5	inactive
48	CG31798 (GeneID 318946)	DRSC01702			5568	3.01e5	inactive
49	Vha16-1 (GeneID 44307)	DRSC05020			5931	3.71e5	inactive

Just “stable assay firefly, run 1 (luminescence)”, for 14 of the entries above:
ths (GeneID 36258) [DRSC06153]	1.67e5
ths (GeneID 36258) [DRSC23123]	4.16e5
gammaCOP (GeneID 43717) [DRSC16955]	2.12e5
CG34163 (GeneID 5740407) [DRSC01219]	6.18e5
CG34148 + P5CDh2 [DRSC13519]	4.58e5
dome (GeneID 32976) [DRSC19583]	4.08e5
CG11170 (GeneID 37533) [DRSC04090]	4.86e5
CG13138 (GeneID 34381) [DRSC02235]	3.87e5
AhcyL2 (GeneID 42043) [DRSC14107]	3.51e5
ppk20 (GeneID 43486) [DRSC16260]	3.81e5
Muc14A (GeneID 318097) [DRSC23264]	4.64e5
Ir93a (GeneID 42471) [DRSC15212]	5.95e5
Ir93a (GeneID 42471) [DRSC15213]	2.93e5
gro (GeneID 43162) [DRSC16962]	5.43e5

Additional entries:
no.	gene	amplicon	stable siRNA reporter change	miRNA reporter change	stable assay Renilla, run 1 (luminescence)	stable assay firefly, run 1 (luminescence)	Outcome
50	Rac1 (GeneID 38146)	DRSC08688			3727	3.16e5	inactive
51	CG31948 (GeneID 326178)	DRSC00740			7220	4.28e5	inactive
52	CR30409 (GeneID 37696)	DRSC22058			9491	5.55e5	inactive
53	CG14839 (GeneID 41736)	DRSC14963			4455	3.86e5	inactive
54	I-3 (GeneID 33068)	DRSC20479			6218	4.09e5	inactive
55	jub (GeneID 32351)	DRSC19367			6464	4.22e5	inactive
56	ACC (GeneID 35761)	DRSC06059			4480	2.30e5	inactive
57	ACC (GeneID 35761)	DRSC07249			5886	3.16e5	inactive
58	CkIalpha (GeneID 32221)	DRSC20231		reporter ratio raised past the hit cutoff	4179	4.84e5	inactive
59	CkIalpha (GeneID 32221)	DRSC22609		reporter ratio raised past the hit cutoff	3140	3.75e5	inactive
60	CkIalpha (GeneID 32221)	DRSC23308			2992	3.09e5	inactive
61	CkIalpha (GeneID 32221)	DRSC25564		reporter ratio raised past the hit cutoff			inactive
62	CG17567 (retired record) (GeneID 50468)	DRSC02627			5979	3.35e5	inactive
63	CG17567 (retired record) (GeneID 50468)	DRSC22537			4052	4.25e5	inactive
64	Mctp (GeneID 37165)	DRSC06510			7210	3.41e5	inactive
65	Mctp (GeneID 37165)	DRSC22896			5988	7.04e5	inactive
66	Nep7 (GeneID 43356)	DRSC15830			6478	4.16e5	inactive
67	Sfp26Ad (GeneID 8673981)	DRSC00904			4911	4.08e5	inactive
68	CG31370 (GeneID 43060)	DRSC21453			11353	6.45e5	inactive
69	CR10032 (GeneID 40877)	DRSC12499			6471	4.30e5	inactive
70	inc (GeneID 31110)	DRSC17954			8029	4.88e5	inactive
71	inc (GeneID 31110)	DRSC18512			4519	3.17e5	inactive
72	CG17508 (GeneID 49893)	DRSC07771			6663	3.43e5	inactive
73	sim (GeneID 41612)	DRSC17054			6994	4.09e5	inactive
74	CG34229 (GeneID 5740848)	DRSC06316			5080	2.35e5	inactive
75	CngB (GeneID 37479)	DRSC04297			7254	1.40e6	inactive
76	Cbp20 (GeneID 42166)	DRSC16601	reporter ratio raised past the hit cutoff	reporter ratio raised past the hit cutoff	23692	5.65e5	active
77	CG7744 (GeneID 37239)	DRSC07036			14612	5.62e5	inactive
78	Atf-2 (GeneID 37978)	DRSC04130			8889	2.14e6	inactive
79	Atf-2 (GeneID 37978)	DRSC04413			5351	5.81e5	inactive
80	CG10104 (GeneID 36602)	DRSC05964			6459	4.45e5	inactive
81	CG1468 (GeneID 31920)	DRSC17946			7083	4.15e5	inactive
82	CycB (GeneID 37618)	DRSC04605			39619	3.54e5	inactive
83	eIF2gamma (GeneID 41843)	DRSC13081	reporter ratio lowered past the hit cutoff	reporter ratio raised past the hit cutoff	3400	5.63e5	inactive
84	eIF2gamma (GeneID 41843)	DRSC16873	reporter ratio lowered past the hit cutoff		8731	1.40e6	active
